Data from the supplement of paper PMC10849652.
This is one part of the list.

Amino acid sequences for entries named in this document (tags omitted). A change or cut given only in a name is not applied to a line headed by its entry.
UniProt Q86SR1: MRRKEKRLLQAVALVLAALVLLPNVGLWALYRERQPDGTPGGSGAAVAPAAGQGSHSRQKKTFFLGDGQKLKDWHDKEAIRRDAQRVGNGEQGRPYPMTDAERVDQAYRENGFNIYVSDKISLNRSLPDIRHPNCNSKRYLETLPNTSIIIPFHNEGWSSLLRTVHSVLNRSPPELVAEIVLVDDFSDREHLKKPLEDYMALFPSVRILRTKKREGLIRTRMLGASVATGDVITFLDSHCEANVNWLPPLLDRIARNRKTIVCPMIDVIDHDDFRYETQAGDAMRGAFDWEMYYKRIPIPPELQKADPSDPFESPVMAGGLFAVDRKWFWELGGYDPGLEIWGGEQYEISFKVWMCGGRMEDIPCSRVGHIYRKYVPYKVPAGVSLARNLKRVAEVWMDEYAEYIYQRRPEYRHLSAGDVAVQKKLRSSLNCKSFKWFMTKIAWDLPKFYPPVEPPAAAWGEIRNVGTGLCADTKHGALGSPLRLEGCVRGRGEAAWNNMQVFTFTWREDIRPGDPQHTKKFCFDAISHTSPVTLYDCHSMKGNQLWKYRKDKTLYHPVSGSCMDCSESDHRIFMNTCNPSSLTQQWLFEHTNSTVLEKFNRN
UniProt Q8IVP5: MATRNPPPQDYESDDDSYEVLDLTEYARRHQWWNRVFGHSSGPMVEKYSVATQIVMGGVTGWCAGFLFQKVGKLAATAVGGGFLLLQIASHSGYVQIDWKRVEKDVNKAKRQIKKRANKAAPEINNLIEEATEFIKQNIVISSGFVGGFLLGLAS
UniProt P27469: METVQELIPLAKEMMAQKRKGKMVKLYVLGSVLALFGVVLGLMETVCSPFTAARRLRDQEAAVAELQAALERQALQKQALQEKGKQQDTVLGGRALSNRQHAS
UniProt Q9H840: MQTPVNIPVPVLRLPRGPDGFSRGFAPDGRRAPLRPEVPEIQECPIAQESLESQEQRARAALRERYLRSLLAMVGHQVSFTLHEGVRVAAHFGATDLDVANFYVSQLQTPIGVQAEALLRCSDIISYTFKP
UniProt Q6P4F1: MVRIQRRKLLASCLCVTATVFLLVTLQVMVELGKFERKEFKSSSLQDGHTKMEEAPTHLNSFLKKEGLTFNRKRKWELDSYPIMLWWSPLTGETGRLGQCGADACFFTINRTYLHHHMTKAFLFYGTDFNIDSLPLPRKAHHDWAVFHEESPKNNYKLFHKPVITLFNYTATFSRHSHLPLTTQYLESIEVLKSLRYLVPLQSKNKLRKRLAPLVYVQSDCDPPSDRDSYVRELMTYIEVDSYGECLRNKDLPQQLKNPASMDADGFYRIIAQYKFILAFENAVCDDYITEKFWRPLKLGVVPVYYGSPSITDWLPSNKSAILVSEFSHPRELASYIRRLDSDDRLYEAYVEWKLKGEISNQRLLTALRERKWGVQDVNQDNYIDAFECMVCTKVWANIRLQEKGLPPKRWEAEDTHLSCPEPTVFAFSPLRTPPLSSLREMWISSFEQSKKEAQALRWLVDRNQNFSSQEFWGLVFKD
UniProt O94915: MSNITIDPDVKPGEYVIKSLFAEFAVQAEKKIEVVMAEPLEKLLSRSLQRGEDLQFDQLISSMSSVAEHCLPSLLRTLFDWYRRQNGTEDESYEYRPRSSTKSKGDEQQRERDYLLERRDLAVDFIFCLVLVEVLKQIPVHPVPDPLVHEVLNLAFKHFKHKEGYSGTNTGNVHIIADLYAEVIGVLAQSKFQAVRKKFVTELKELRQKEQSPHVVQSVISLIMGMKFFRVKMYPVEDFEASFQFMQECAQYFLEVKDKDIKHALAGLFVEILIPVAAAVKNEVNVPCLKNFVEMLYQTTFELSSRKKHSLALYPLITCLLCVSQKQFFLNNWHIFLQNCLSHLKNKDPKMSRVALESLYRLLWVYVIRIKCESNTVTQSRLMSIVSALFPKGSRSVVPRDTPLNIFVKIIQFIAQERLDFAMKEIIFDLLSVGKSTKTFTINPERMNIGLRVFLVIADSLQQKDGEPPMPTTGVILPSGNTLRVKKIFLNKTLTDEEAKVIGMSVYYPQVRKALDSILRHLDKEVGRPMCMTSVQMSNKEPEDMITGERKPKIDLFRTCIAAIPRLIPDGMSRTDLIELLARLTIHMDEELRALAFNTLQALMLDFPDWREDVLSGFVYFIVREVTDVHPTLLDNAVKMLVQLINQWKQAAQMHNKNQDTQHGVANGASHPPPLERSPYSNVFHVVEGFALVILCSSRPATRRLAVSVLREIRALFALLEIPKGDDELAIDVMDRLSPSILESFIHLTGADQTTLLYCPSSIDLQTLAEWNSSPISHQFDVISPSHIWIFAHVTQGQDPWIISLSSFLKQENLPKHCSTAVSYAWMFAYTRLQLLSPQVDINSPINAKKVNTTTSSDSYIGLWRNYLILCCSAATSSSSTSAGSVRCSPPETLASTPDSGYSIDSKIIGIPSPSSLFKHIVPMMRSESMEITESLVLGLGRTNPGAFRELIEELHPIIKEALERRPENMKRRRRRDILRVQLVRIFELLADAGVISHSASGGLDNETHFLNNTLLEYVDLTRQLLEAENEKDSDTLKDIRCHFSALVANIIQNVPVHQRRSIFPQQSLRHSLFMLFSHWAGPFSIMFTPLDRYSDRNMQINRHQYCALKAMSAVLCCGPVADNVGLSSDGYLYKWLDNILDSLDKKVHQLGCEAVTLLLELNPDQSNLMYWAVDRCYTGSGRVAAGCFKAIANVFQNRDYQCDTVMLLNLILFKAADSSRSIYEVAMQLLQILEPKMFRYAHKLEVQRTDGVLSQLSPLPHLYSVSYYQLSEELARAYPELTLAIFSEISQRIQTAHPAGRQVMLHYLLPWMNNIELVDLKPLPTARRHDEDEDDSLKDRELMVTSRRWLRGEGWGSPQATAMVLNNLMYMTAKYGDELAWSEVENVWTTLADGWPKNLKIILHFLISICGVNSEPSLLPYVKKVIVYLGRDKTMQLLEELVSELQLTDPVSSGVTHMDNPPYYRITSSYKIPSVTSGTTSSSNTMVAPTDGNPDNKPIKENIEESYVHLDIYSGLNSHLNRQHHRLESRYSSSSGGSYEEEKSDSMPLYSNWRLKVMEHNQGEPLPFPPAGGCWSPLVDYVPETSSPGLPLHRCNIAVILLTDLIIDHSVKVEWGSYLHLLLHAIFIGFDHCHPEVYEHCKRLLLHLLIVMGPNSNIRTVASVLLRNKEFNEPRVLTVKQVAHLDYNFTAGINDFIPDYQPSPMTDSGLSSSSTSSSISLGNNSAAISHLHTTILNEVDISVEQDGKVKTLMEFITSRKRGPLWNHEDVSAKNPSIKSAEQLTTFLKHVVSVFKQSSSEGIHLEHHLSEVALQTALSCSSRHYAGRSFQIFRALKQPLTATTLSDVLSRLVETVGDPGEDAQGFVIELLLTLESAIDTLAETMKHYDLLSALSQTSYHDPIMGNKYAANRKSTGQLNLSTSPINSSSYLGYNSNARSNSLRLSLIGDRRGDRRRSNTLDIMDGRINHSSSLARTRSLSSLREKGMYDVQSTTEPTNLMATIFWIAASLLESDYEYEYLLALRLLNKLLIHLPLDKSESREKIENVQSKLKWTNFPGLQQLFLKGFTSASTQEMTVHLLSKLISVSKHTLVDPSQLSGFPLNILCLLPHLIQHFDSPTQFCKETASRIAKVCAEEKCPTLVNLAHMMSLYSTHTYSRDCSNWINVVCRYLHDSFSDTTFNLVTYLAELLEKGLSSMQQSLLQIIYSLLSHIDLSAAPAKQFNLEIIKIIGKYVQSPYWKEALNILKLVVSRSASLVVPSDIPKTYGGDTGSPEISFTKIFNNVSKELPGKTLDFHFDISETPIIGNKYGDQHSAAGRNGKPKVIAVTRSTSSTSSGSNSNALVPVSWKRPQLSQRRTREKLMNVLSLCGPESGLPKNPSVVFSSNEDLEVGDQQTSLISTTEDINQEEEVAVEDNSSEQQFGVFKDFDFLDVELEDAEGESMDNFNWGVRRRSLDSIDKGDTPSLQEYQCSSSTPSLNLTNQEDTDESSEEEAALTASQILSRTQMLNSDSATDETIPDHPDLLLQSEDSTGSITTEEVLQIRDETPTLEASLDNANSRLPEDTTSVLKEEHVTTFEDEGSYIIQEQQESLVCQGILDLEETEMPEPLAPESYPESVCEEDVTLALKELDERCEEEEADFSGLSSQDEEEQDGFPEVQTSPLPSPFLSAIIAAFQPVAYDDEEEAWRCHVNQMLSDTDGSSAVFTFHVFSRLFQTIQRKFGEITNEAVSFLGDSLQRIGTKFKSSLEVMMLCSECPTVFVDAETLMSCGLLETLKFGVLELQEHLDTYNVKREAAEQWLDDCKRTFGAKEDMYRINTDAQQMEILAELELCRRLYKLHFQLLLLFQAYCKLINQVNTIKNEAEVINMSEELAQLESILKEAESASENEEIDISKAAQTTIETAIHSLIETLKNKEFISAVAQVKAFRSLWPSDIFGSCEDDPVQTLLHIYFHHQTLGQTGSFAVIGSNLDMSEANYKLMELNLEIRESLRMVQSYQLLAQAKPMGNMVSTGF
UniProt Q96CN9: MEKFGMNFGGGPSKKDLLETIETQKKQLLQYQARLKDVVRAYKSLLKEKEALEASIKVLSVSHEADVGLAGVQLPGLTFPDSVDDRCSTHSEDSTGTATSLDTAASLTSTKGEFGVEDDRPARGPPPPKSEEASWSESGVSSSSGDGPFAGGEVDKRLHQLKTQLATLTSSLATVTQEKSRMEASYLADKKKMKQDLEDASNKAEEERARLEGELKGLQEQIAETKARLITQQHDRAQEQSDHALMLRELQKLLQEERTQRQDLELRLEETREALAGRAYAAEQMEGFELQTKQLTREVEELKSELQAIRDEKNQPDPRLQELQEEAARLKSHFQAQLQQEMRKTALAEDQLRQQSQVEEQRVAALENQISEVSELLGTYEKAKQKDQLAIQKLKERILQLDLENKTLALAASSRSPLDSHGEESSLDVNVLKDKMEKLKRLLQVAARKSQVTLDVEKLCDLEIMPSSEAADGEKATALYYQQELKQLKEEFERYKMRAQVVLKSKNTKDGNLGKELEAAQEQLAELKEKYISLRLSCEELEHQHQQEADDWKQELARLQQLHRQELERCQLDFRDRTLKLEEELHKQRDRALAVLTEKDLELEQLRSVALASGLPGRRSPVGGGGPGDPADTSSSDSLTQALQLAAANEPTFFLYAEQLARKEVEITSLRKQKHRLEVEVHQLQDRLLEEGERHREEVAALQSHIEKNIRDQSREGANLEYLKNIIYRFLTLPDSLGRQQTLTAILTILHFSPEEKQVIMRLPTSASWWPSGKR
UniProt Q06547, whole entry, looked up: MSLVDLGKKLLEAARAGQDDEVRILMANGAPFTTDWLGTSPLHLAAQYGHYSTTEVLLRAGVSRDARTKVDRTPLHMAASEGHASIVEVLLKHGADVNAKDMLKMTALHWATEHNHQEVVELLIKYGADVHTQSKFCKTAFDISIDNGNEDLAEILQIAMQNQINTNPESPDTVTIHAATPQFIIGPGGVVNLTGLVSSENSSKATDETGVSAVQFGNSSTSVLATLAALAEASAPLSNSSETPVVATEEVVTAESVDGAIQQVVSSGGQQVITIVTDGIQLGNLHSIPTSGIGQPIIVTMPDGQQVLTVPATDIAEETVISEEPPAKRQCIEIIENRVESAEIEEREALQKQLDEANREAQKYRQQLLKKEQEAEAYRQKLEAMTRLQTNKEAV
UniProt Q9NWZ8: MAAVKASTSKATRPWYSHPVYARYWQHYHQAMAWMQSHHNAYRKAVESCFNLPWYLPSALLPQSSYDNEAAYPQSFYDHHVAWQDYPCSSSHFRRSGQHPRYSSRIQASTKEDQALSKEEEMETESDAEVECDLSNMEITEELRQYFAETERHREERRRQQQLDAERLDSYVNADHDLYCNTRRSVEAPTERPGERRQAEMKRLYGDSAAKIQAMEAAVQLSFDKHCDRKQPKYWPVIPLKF
UniProt Q9P0K8: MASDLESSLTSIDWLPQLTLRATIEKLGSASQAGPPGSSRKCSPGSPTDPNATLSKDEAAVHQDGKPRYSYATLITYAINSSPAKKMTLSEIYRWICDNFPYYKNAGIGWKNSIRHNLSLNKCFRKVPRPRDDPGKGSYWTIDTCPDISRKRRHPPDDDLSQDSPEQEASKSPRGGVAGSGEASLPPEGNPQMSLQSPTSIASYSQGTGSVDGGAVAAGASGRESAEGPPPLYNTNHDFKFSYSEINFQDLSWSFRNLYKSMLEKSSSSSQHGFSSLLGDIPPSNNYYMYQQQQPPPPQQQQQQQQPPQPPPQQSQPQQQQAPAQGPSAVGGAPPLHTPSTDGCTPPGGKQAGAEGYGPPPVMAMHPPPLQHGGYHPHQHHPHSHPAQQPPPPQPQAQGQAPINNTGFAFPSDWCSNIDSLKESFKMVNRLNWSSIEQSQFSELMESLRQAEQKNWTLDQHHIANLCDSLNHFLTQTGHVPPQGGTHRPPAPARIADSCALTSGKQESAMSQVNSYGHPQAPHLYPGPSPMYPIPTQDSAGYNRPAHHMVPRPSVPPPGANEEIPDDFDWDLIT
UniProt P22466: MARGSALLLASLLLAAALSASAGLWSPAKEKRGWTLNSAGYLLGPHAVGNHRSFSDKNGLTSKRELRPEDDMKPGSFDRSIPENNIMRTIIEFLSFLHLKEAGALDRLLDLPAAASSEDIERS

What was measured:
Experiment in all cases: log2 fold change, soluble protein after heating vs DMSO (PISA); higher = thermal stabilisation; K562 cells, 10 uM, 30 min; active = over 0.2 and 3.5 SD of the protein, either way, in both replicates (recomputed)
[1] = compound: CC1=C(C=C(C=C1)NC(=O)C2=CC(=CC=C2)C(C)(C)C#N)NC3=CC4=C(C=C3)N=CN(C4=O)C
How it was run: (§1)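 For each measurement, 10 μM compound was applied for 30 min to K562 cells at 2×10^6 cells/mL. Aliquots were heated for 3 min across 48°C-58°C, pooled, and extracted in PBS with 0.5% NP-40 at 4°C; the supernatant after 21,000xg for 90 min was soluble protein. This was quantified by TMTpro 16plex LC-MS/MS with channel sums equalised, and thermal stability was reported relative to control samples from duplicates, on a log2 fold-change scale.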

[2] = compound: CC1=NC(=CC=C1)C2=C(N=C(N2)C(C)(C)C)C3=CC4=NC=CN=C4C=C3
How it was run: as §1

vemurafenib = compound: CCCS(=O)(=O)Nc1ccc(F)c(C(=O)c2c[nH]c3ncc(-c4ccc(Cl)cc4)cc23)c1F [vemurafenib]
How it was run: as §1

[3] = compound: CCCc1cc(C)[nH]c(=O)c1CNC(=O)c1cc(-c2ccnc(N3CCN(C)CC3)c2)cc2c1cnn2C(C)C
How it was run: as §1

barasertib = compound: CCN(CCCOc1ccc2c(Nc3cc(CC(=O)Nc4cccc(F)c4)[nH]n3)ncnc2c1)CCOP(=O)(O)O [barasertib]
How it was run: as §1

[4] = compound: CC1=C(C=C(C=C1)NC(=O)C2=CC(=CC=C2)N(C)C)NC(=O)C3=CC=C(C=C3)O
How it was run: as §1

[5] = compound: CC1=CC=C(C=C1)SC2=C3C=C(SC3=CN=C2)C(=O)N
How it was run: as §1

Nexturastat A = compound: CCCCN(Cc1ccc(C(=O)NO)cc1)C(=O)Nc1ccccc1 [Nexturastat A]
How it was run: as §1

[6] = compound: CCCS(=O)(=O)Nc1ccc(F)c(C(=O)c2c[nH]c3ncc(Cl)cc23)c1F
How it was run: as §1

givinostat = compound: CCN(CC)Cc1ccc2cc(COC(=O)Nc3ccc(C(=O)NO)cc3)ccc2c1 [givinostat]
How it was run: as §1

Measured: log2 fold change

FUOM (UniProt A2VDF0)
inactive: [1] -0.076 | [2] 0.066 | vemurafenib 0.126 | [3] -0.155 | barasertib 0.051

FYB1 isoform 3 (UniProt O15117)
inactive: [1] 0.073 | [4] 0.063 | [5] 0.093 | [2] 0.051 | Nexturastat A 0.011 | vemurafenib -0.009 | [6] 0.169 | [3] -0.03 | givinostat 0.066 | barasertib 0.052

GID4 (UniProt Q8IVV7)
active: [6] -0.271
inactive: [1] 0.028 | [4] 0.003 | [5] -0.07 | Nexturastat A 0.058 | vemurafenib -0.181 | [3] -0.035 | givinostat -0.03 | barasertib -0.1

FUT1 (UniProt P19526)
inactive: [1] -0.198 | Nexturastat A -0.003

FZD5 (UniProt Q13467)
inactive: [1] -0.166 | [5] -0.033 | Nexturastat A 0.118 | [6] -0.26 | [3] -0.124 | givinostat 0.237 | barasertib 0.16

FOXRED2 (UniProt Q8IWF2)
inactive: [4] -0.115 | [5] -0.087 | [2] -0.078 | Nexturastat A 0.018 | vemurafenib -0.017 | [6] -0.172 | [3] 0.013 | givinostat 0.028

FZD1 (UniProt Q9UP38)
inactive: [1] -0.054 | Nexturastat A 0.192 | vemurafenib 0.145 | givinostat 0.382 | barasertib 0.306

GALNT10 (UniProt Q86SR1)
inactive: [1] -0.005 | [5] 0.038 | [2] -0.204 | Nexturastat A -0.035 | [6] 0.071 | [3] 0.104 | barasertib -0.075

FRAT1 (UniProt Q92837)
inactive: [4] 0.088

FUT8 (UniProt Q9BYC5)
inactive: [1] -0.05 | [4] -0.047 | [2] 0.037 | Nexturastat A 0.064 | vemurafenib -0.417 | [3] 0.048 | givinostat -0.048 | barasertib -0.014

GGT1 (UniProt P19440)
inactive: [1] -0.01 | [5] 0.015 | [2] 0.009 | Nexturastat A 0.178 | [6] 0.02 | [3] -0.08 | givinostat 0.031 | barasertib -0.059

FUNDC1 (UniProt Q8IVP5)
inactive: [1] 0.007 | [5] 0.118 | [6] -0.013 | [3] -0.285 | barasertib 0.052

GAS6 isoform 1 (UniProt Q14393)
inactive: [1] -0.028 | Nexturastat A -0.04 | givinostat 0.014

GFM2 (UniProt Q969S9)
inactive: [3] 0.177 | barasertib -0.022

G0S2 (UniProt P27469)
inactive: [3] 0.067

GEMIN7 (UniProt Q9H840)
inactive: Nexturastat A -0.12 | [3] 0.088 | givinostat -0.285

GALNT7 (UniProt H0YAH3)
inactive: [2] 0.14 | Nexturastat A 0.293 | vemurafenib 0.121 | barasertib -0.025

G6PC3 (UniProt Q9BUM1)
inactive: [5] -0.059 | vemurafenib 0.081 | [6] 0.159 | [3] -0.042 | givinostat 0.093

GAPDH isoform 2 (UniProt P04406)
inactive: [3] -0.311 | givinostat 0.057

GANAB (UniProt Q14697)
inactive: [5] -0.786 | [6] -0.774 | [3] 0.607

GGACT (UniProt Q9BVM4)
inactive: [4] 0.066 | [3] 0.013

GDPGP1 (UniProt Q6ZNW5)
inactive: [5] -0.012 | [6] 0.003 | [3] -0.053 | givinostat 0.177

FYTTD1 (UniProt Q96QD9)
inactive: Nexturastat A 0.065

GDF15 (UniProt Q99988)
inactive: [4] -0.03 | [5] -0.059 | [2] 0.018 | vemurafenib -0.024 | [6] -0.111 | [3] 0.1 | barasertib -0.148

FUT10 isoform 2 (UniProt Q6P4F1)
inactive: Nexturastat A -0.278

FRMPD3 (UniProt Q5JV73)
inactive: [4] -0.008 | Nexturastat A 0.207 | vemurafenib -0.324 | givinostat -0.066 | barasertib 0.112

GAGE1 (UniProt Q13065)
inactive: [3] -0.177

FOXJ3 (UniProt Q9UPW0)
inactive: [4] 0.122 | [5] -0.078 | [2] 0.029 | Nexturastat A -0.033 | vemurafenib 0.077 | [6] -0.044 | [3] -0.101 | givinostat 0.032 | barasertib 0.115

FRYL isoform 2 (UniProt O94915)
inactive: [4] 0.029 | [5] -0.023 | Nexturastat A 0.102 | vemurafenib 0.076 | [6] 0.128

FUT4 (UniProt P22083)
inactive: [2] 0.2

GATC (UniProt O43716)
inactive: [4] -0.217 | [5] -0.064 | [2] 0.057 | Nexturastat A -0.378 | vemurafenib 0.059 | [6] -0.003 | [3] -0.024 | barasertib 0.144

FZR1 (UniProt Q9UM11)
inactive: [2] -0.15

GFAP isoform 2 (UniProt P14136)
inactive: [3] -0.227

GCC1 (UniProt Q96CN9)
inactive: [4] -0.081 | [2] -0.2 | Nexturastat A -0.036 | givinostat 0.16

GABPB1 isoform 3 (UniProt Q06547)
inactive: [5] 0.224 | vemurafenib 0.112 | [6] -0.049 | [3] -0.007 | barasertib 0.071

GDPD5 (UniProt Q8WTR4)
inactive: [2] 0.187 | Nexturastat A 0.066 | barasertib 0.161

GDPD3 (UniProt Q7L5L3)
inactive: [5] -0.117 | Nexturastat A -0.019 | vemurafenib 0.173 | [6] -0.285 | givinostat 0.026

GDI2 (UniProt Q5SX86)
inactive: [4] 0.009 | [2] 0.049 | Nexturastat A -0.154 | givinostat 0.1 | barasertib -0.004

G6PD (UniProt E7EUI8)
inactive: [2] 0.14

GALNT3 (UniProt Q14435)
inactive: givinostat -0.109

GEMIN8 (UniProt Q9NWZ8)
inactive: [5] -0.136 | Nexturastat A 0.156 | vemurafenib 0 | [6] 0.19 | givinostat -0.056

8 consecutive records out of the list so far:
FUOM (UniProt A2VDF0)
inactive: [1] -0.076 | [2] 0.066 | vemurafenib 0.126 | [3] -0.155 | barasertib 0.051

FYB1 isoform 3 (UniProt O15117)
inactive: [1] 0.073 | [4] 0.063 | [5] 0.093 | [2] 0.051 | Nexturastat A 0.011 | vemurafenib -0.009 | [6] 0.169 | [3] -0.03 | givinostat 0.066 | barasertib 0.052

GID4 (UniProt Q8IVV7)
active: [6] -0.271
inactive: [1] 0.028 | [4] 0.003 | [5] -0.07 | Nexturastat A 0.058 | vemurafenib -0.181 | [3] -0.035 | givinostat -0.03 | barasertib -0.1

FUT1 (UniProt P19526)
inactive: [1] -0.198 | Nexturastat A -0.003

FZD5 (UniProt Q13467)
inactive: [1] -0.166 | [5] -0.033 | Nexturastat A 0.118 | [6] -0.26 | [3] -0.124 | givinostat 0.237 | barasertib 0.16

FOXRED2 (UniProt Q8IWF2)
inactive: [4] -0.115 | [5] -0.087 | [2] -0.078 | Nexturastat A 0.018 | vemurafenib -0.017 | [6] -0.172 | [3] 0.013 | givinostat 0.028

FZD1 (UniProt Q9UP38)
inactive: [1] -0.054 | Nexturastat A 0.192 | vemurafenib 0.145 | givinostat 0.382 | barasertib 0.306

GALNT10 (UniProt Q86SR1)
inactive: [1] -0.005 | [5] 0.038 | [2] -0.204 | Nexturastat A -0.035 | [6] 0.071 | [3] 0.104 | barasertib -0.075

(list continues)

FOXJ2 (UniProt Q9P0K8)
inactive: vemurafenib 0.171

GAL (UniProt P22466)
inactive: [4] 0.126 | [2] 0 | vemurafenib -0.007 | givinostat 0.151 | barasertib -0.051

GFOD2 (UniProt Q3B7J2)
inactive: Nexturastat A 0.013

GFOD1 (UniProt Q9NXC2)
inactive: [5] -0.562 | [2] -0.201 | Nexturastat A 0.053 | [6] -1.4 | givinostat 0.262

FRMD8 (UniProt Q9BZ67)
inactive: Nexturastat A 0.195

GCFC2 isoform 3 (UniProt P16383)
inactive: [5] -0.014 | vemurafenib 0.149 | [6] -0.127 | givinostat 0.139
